Laboratory results: PubChem BioAssay AID540276 (National Center for Advancing Translational Sciences (NCATS), 2011)
Screen size: about 300,000 compounds; about 5,400 (1.8%) were called active. Inconclusive results, whose numbers are uncertain, are shown with a selection of clear calls. Calls come from the whole dose curve; tested in HEK293 cells. Where the call is inconclusive, the potency comes from a doubtful curve fit.

assay: qHTS for inhibitors of binding or entry into cells for Marburg Virus; conditions: Marburg virus pseudotyped entry inhibition, cell reporter; activity change, negative = inhibition: at 37.8 µM (top of the series) unless noted
% is set by controls: 0 for no effect and ±100 for the full control effect; potency is the fitted concentration of half-maximal effect.

| SMILES | Potency | activity change, negative = inhibition |
| --- | --- | --- |
| O=C1CC(NS(=O)(=O)c2cccs2)CN1c1ccccc1 (centres undefined) | inconclusive: 15.8 µM [activator, single point] |  |
| Cc1ccc(C(C(=O)NCC2CCCO2)N(C(=O)c2snc(C(N)=O)c2N)c2ccc3c(c2)OCCO3)cc1 (centres undefined) | inconclusive: 10 µM [inhibitor, partial curve, poor fit] |  |
| COc1ccc(OCC(=O)Nc2ccc3c(c2)nc(CN2CCN(C(C)=O)CC2)n3C)cc1 | inconclusive: 0.112 µM [inhibitor, full curve, poor fit] |  |
| COc1ccc(-c2nn(-c3ccccc3)cc2/C=C/C(=O)OCC(=O)Nc2ccccc2C#N)cc1 | inconclusive: 5.62 µM [inhibitor, single point] |  |
| CC(C)C(=O)N1CCN(c2ccc(NC(=O)c3ccc(Br)o3)cc2)CC1 |  | inactive: -16.4% |
| C=C(Cl)COc1ccc2c(C)cc(=O)oc2c1 |  | inactive: 7.76% |
| CC1=NNC(=O)C1CC(=O)N/N=C/c1sccc1C (centres undefined) |  | inactive: 4.82% [at 46.1 µM] |
| CCOC(=O)C1(Cc2ccccc2C(F)(F)F)CCN(C2CCSC2)CC1 (centres undefined) |  | inactive: -5.66% [at 46.1 µM] |
| CC(NC(=O)CCc1nnc(CCCc2ccccc2)o1)c1ccccc1 (centres undefined) | inconclusive: 5.62 µM [activator, single point] |  |
| O=C(CCC(=O)Nc1ccc(F)cc1)N/N=C/c1ccc(O)cc1 | inconclusive: 35.5 µM [activator, partial curve, poor fit] |  |
| S=C(NCc1ccc(Cl)cc1)NC1CCN(Cc2ccccc2)CC1 | active: 6.31 µM |  |
| CC(NC(=S)Nc1ccc([N+](=O)[O-])cc1)c1ccncc1 (centres undefined) |  | inactive: -26% [at 46.1 µM] |
| CCOc1ccc(S(=O)(=O)N2CCN(C)CC2)cc1NC(=O)c1ccccc1F | inconclusive: 5.01 µM [inhibitor, single point] |  |
| CCc1c(C)nc(Nc2nc(C)c3ccc(OC)cc3n2)[nH]c1=O |  | inactive: -5.73% |
| CCOC(=O)c1c(NC(=O)C(C)NCc2ccco2)sc2c1CCC(C)C2 (centres undefined) | inconclusive: 22.4 µM [inhibitor, partial curve, poor fit] |  |
| c1ccc(Oc2ncnc3oc(-c4ccccc4)cc23)cc1 |  | inactive: 30.8% |
| NS(=O)(=O)c1ccc(NC(=O)/C=C/c2cn(-c3ccccc3)nc2-c2cccc(Cl)c2)cc1 | inconclusive: 28.2 µM [inhibitor, single point] |  |
| CCC(NC(=O)CCc1nnc(-c2cc(C)on2)o1)C12CC3CC(CC(C3)C1)C2 (centres undefined) |  | inactive: 2.6% |
| C[N+](C)(C)CC(=O)O | inconclusive: 2.24 µM [inhibitor, full curve, poor fit] |  |
| O=C(NCCc1c[nH]c2ccccc12)c1cc(S(=O)(=O)N2CCCCC2)ccc1N1CCOCC1 |  | inactive: -26.3% |
| COC(=O)/C=C/c1ccc(OC(=O)c2ccncc2)cc1 |  | inactive: 18.5% |
| COc1ccc(C2C(C(=O)OC(C)C)=C(C)N=c3s/c(=C\c4cccs4)c(=O)n32)cc1 (centres undefined) |  | inactive: -4.42% [at 46.1 µM] |

| SMILES | Potency | activity change, negative = inhibition |
| --- | --- | --- |
| COc1ccc(/C=C/C(=O)O)cc1S(=O)(=O)N1CCc2ccccc21 | inconclusive: 0.126 µM [inhibitor, full curve, poor fit] |  |
| CC(C)CO/N=C1\C[C@@H](O)[C@@H](O)[C@@H]2[C@@H]3C(=O)N(c4ccc(F)cc4F)C(=O)[C@@H]3CC[C@H]12 | inconclusive: 1.19 µM [activator, single point] |  |
| Cc1sc2nc(SCC(=O)C(C)(C)C)n(Cc3ccco3)c(=O)c2c1C | inconclusive: 23.1 µM [inhibitor, single point] |  |
| CCOc1ccc(CCNC(=O)CSCc2nc(-c3cccc(C)c3)oc2C)cc1OCC | inconclusive: 11.2 µM [inhibitor, single point] |  |
| CC(=O)OC1CCC2(C)C(CCC3C4CC(N5CC5)C(C(C)=O)C4(C)CC(=O)C32)C1 (centres undefined) | inconclusive: 35.5 µM [inhibitor, single point] |  |
| CSc1ccc(/C=C(/NC(=O)c2ccco2)C(=O)NCc2ccco2)cc1 | inconclusive: 3.55 µM [inhibitor, partial curve, poor fit] |  |
| CCOC(=O)C1CCN(CC(=O)Nc2c(C(=O)OC)[nH]c3ccc(Cl)cc23)CC1 | active: 10 µM |  |
| CCCCn1c(N)c(N(CC)C(=O)CN2C(=O)NC(C)(c3ccccc3)C2=O)c(=O)[nH]c1=O (centres undefined) | inconclusive: 31.6 µM [activator, single point] |  |
| O=C(c1ccc(-c2ccccc2)cc1)N1CCN(c2ncccn2)CC1 |  | inactive: -3.72% [at 46.1 µM] |
| CC(=O)c1ccc(N2Cc3ccccc3C2=NC(=O)c2cccs2)cc1 | inconclusive: 4.47 µM [inhibitor, partial curve, poor fit] |  |
| N=c1occ(C(=O)c2cc(F)ccc2O)cc1C(=O)NC1CCCCC1 | inconclusive: 35.5 µM [inhibitor, single point] |  |
| Brc1ccc(OCCN2CCOCC2)cc1 | inconclusive: 20 µM [activator, single point] |  |
| CCCCNc1nc(N(C)c2ccccc2)nc(-n2ccnc2)n1 | inconclusive: 29.1 µM [inhibitor, single point] |  |
| Cc1cc(Cl)ccc1OCCCC(=O)NNC(=O)c1ccccc1O | inconclusive: 2 µM [inhibitor, partial curve, poor fit] |  |
| COc1ccc(NC(=S)N(CCCN2CCOCC2)C(C)c2cc3cccc(OC)c3o2)cc1 (centres undefined) | inconclusive: 14.1 µM [inhibitor, single point] |  |
| CCOc1ccccc1N(CC)C(=O)c1ccc2c(=O)n3c(nc2c1)CCCCC3 | active: 8.91 µM |  |
| CC(C)(C)c1ccc(S(=O)(=O)Nc2ccc(Cc3ccncc3)cc2)cc1 | inconclusive: 14.1 µM [inhibitor, single point] |  |
| CSC(=S)N/N=C/c1ccc(N(C)C)cc1 | inconclusive: 6.31 µM [activator, partial curve, poor fit] |  |
| CCCCOc1ccc(C(=O)OC2CC(C)N(C)CC2C)cc1 (centres undefined) | inconclusive: 15.8 µM [inhibitor, single point] |  |
| Nc1nonc1-c1nc2ccccc2n1CC(=O)Nc1ccccc1C(=O)O | inconclusive: 35.5 µM [inhibitor, single point] |  |
| COc1cccc(/C=N\NC(=O)C2=NNC(=O)C2C)c1O (centres undefined) |  | inactive: -25.7% |
| Cc1cc(S(=O)(=O)Nc2ccc(C(=O)NCC3(N4CCCCC4)CCCCC3)cc2)ccc1F | active: 11.2 µM |  |

Some of the entries so far, in CSV form.
SMILES,Potency,"activity change, negative = inhibition"
CC(C)CO/N=C1\C[C@@H](O)[C@@H](O)[C@@H]2[C@@H]3C(=O)N(c4ccc(F)cc4F)C(=O)[C@@H]3CC[C@H]12,"inconclusive: 1.19 µM [activator, single point]",
Cc1sc2nc(SCC(=O)C(C)(C)C)n(Cc3ccco3)c(=O)c2c1C,"inconclusive: 23.1 µM [inhibitor, single point]",
CCOc1ccc(CCNC(=O)CSCc2nc(-c3cccc(C)c3)oc2C)cc1OCC,"inconclusive: 11.2 µM [inhibitor, single point]",
CC(=O)OC1CCC2(C)C(CCC3C4CC(N5CC5)C(C(C)=O)C4(C)CC(=O)C32)C1 (centres undefined),"inconclusive: 35.5 µM [inhibitor, single point]",
CSc1ccc(/C=C(/NC(=O)c2ccco2)C(=O)NCc2ccco2)cc1,"inconclusive: 3.55 µM [inhibitor, partial curve, poor fit]",
CCOC(=O)C1CCN(CC(=O)Nc2c(C(=O)OC)[nH]c3ccc(Cl)cc23)CC1,active: 10 µM,
CCCCn1c(N)c(N(CC)C(=O)CN2C(=O)NC(C)(c3ccccc3)C2=O)c(=O)[nH]c1=O (centres undefined),"inconclusive: 31.6 µM [activator, single point]",
O=C(c1ccc(-c2ccccc2)cc1)N1CCN(c2ncccn2)CC1,,inactive: -3.72% [at 46.1 µM]
CC(=O)c1ccc(N2Cc3ccccc3C2=NC(=O)c2cccs2)cc1,"inconclusive: 4.47 µM [inhibitor, partial curve, poor fit]",
N=c1occ(C(=O)c2cc(F)ccc2O)cc1C(=O)NC1CCCCC1,"inconclusive: 35.5 µM [inhibitor, single point]",
Brc1ccc(OCCN2CCOCC2)cc1,"inconclusive: 20 µM [activator, single point]",
CCCCNc1nc(N(C)c2ccccc2)nc(-n2ccnc2)n1,"inconclusive: 29.1 µM [inhibitor, single point]",
Cc1cc(Cl)ccc1OCCCC(=O)NNC(=O)c1ccccc1O,"inconclusive: 2 µM [inhibitor, partial curve, poor fit]",
